Among all 31,000 sequences or so, about 1,400 (4.5%) were called active.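 The calls were made as follows: active = median seed-adjusted z-score above 1 or below -1; inactive = the rest.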 The list shows a part of the results.

This is an account of results in PubChem BioAssay AID1347426 (Functional Genomics Laboratory (NCATS/FGL), 2020).

The experiment in a line: Novel Modifiers of Survival Motor Neuron (SMN) Protein: Gene Identification via Genome-wide siRNA Screen.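 Also: luminescence tracks full-length SMN protein made from the SMN2 reporter.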 To be noted: HEK293T SMN2-luciferase reporter, siRNA knockdown, 72 h; actives lie on both sides. An outline of the steps: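 siRNA screen, 10418 genes ×3 siRNAs; 1 pmol/well, lipid reverse transfection into HEK293T SMN2-luc reporter line. 72 h, 37 °C, 5% CO2; ONE-Glo readout. Data: neg-ctrl normalized, log10, MAD; hit = MAD >1.0 or < -1.0.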
As for GGCUACGUCCUGGUCUAUATT against NKIRAS2, the median seed-adjusted z-score was inactive: 0.111.
In the case of CUACCUGUUUUAAUGCUAATT against GC it was inactive: 0.14; in that of AGGUGUUAUUCGUCAUGUUTT against TRPM3, inactive: -0.633; in that of CAUCAUCUAUGUAAGCCUATT against PRKD1, inactive: -0.323.
For the sequence CCAGGUUGUUUUACGAAUATT against IDI1, the median seed-adjusted z-score is inactive: -0.0118.
As to GGAAUUACUACUCACCUAUTT against TRHR, the median seed-adjusted z-score was inactive: -0.873.
AGAUGCCUUUAGAAGAUGATT against NPPA: the median seed-adjusted z-score was inactive: -0.897.
For the sequence GCAGGUACAUGUCUUGUCUTT against SPRY2, the median seed-adjusted z-score is inactive: 0.148.
Turning to GGACCGUCUACUCAUCCAATT against IL8RB, the median seed-adjusted z-score is inactive: -0.387.
As for UAACGAGGAUGAUAUUGUATT against RCBTB2, the median seed-adjusted z-score was inactive: 0.235.
Turning to CUUCAGUUCUAGCGUCAACTT against LTB4R2, the median seed-adjusted z-score was inactive: -0.26.
Regarding CCAACCGCAUGAUUCCACATT against RBMS3, the median seed-adjusted z-score was inactive: 0.0976.
For the sequence GGCAAUUAAUGGAACAGUUTT against MTMR8, the median seed-adjusted z-score was inactive: -0.416.
Regarding ACUCGACUUCUGAACUGGATT against TPD52L3, the median seed-adjusted z-score was inactive: 0.552.
The result for GCUUAAAGUAUGCAACUAUTT against FPGT reads inactive: 0.36; that for CCACAUGACUUAUUAUGCATT against DCN, inactive: 0.326.
Regarding CCAAUGUGGUACUCAAAAATT against TRIM64, the median seed-adjusted z-score is inactive: -0.024.
Take CGGCCUACUUCUGCAUCUATT against SPHK2: the median seed-adjusted z-score is inactive: 0.
On to CCUAUCAAGUUUGAGCUUUTT against CTGF, for which the median seed-adjusted z-score was inactive: -0.181.
As to CCAGCAUAUCAAUAGAUUATT against SLC25A32, the median seed-adjusted z-score was inactive: -0.299.
CCGUACCAAUGUCCCAUGATT against IRF4: the median seed-adjusted z-score is inactive: -0.332.
Take CAGACAUGAAGUAUAAGAATT against TCEA2: the median seed-adjusted z-score was inactive: 0.552.
In the case of AGGACAUUCCUGCAAUUAATT against ASTL, the median seed-adjusted z-score is inactive: 0.722.
Take GCAGAGACUAUUACACGGATT against SGCE: the median seed-adjusted z-score is inactive: 0.202.
In the case of GCAAAGGUGUUGCAUUCUUTT against DCTN5 it was inactive: 0.0112; in that of CCAUUUGACCAUAAUGAAUTT against ZNF382, inactive: 0.601; in that of GAUUGUCUUCGGUCUAUUATT against STAM, inactive: 0.
In the case of CCCUCAUGAAGAUCAGUGATT against CYP2A6, the median seed-adjusted z-score is inactive: 0.117.
Take CCUCUGUUCGUCUACCUCUTT against FZD7: the median seed-adjusted z-score was inactive: -0.159.
For GGCUAUCACGCUUCGAGAATT against AP1M1, the median seed-adjusted z-score was inactive: 0.42.
In the case of GCCCUUGCCUUAUUGCUGATT against MED20 it was active: -1.66; in that of GGGAGACGGUAGAAUCAGATT against ATP13A4, active: -1.09.
Turning to GGAUUAUUCAUUAUUACAUTT against NDUFB6, the median seed-adjusted z-score was inactive: -0.357.
The result for GGUUCAAUGUGGAGACAGUTT against ARF3 reads inactive: 0.18.
As to GCCUCAGAGUUCACGGACATT against ROBO4, the median seed-adjusted z-score is inactive: -0.431.
The result for CGGGAGAUCUGCCUACUCATT against CDK5 reads inactive: 0.402; that for UCAUCAAUAUUAUCGGGAUTT against CYP4F11, inactive: 0.307; that for GAAUUCCCUUCUGAGUUAATT against ID2, inactive: 0.783.
As for GCUCGUUACCUACAUAGUATT against ULK2, the median seed-adjusted z-score was inactive: -0.0393.
As to GAGCACGUGUAUACAUAUATT against ZNF586, the median seed-adjusted z-score is inactive: -0.973.
As to ACAGUUCUCUAUGACCUCATT against PLA2G4E, the median seed-adjusted z-score is inactive: 0.266.
For the sequence GGUUUUACAUGACCUGCGATT against MAP3K7IP2, the median seed-adjusted z-score is inactive: 0.0195.
Take GGAAGUUCCUGAAUUUGUATT against EPX: the median seed-adjusted z-score was inactive: 0.159.
Take CAGUGAACUUGGGAUACAATT against TPMT: the median seed-adjusted z-score is inactive: 0.19.
For GCAUAAUCCACCAUCAAUATT against BRAF, the median seed-adjusted z-score is inactive: 0.271.
In the case of GUGUCUCGAGUGUGAAAAATT against ZNF322B it was inactive: 0.0433; in that of CCACCAAAGUUUCCGCAGATT against CDH11, inactive: -0.457.
Consider GAGUCUUACUGUAAGCAGUTT against INPP5B, for which the median seed-adjusted z-score was inactive: 0.
With GAACCUCAGUCAAAUCGAUTT against OXSR1, the median seed-adjusted z-score was inactive: -0.0682.
As to GCCGUAGUGUAAUGAUUGATT against ILK, the median seed-adjusted z-score is inactive: -0.231.
GCAAGUUGGAAGACCGGAATT against XPO5: the median seed-adjusted z-score was inactive: -0.031.
In the case of GAAACUAGUUGUGAUGAUATT against OSGEPL1 it was inactive: -0.708; in that of CCAAAGAGGUGGGAUUUUUTT against HPDL, inactive: 0.483; in that of GAACCUGAGCGACCUCUAUTT against LRG1, inactive: 0.668.
Take CACAGCAACUUCAAGAAGATT against BTN2A2: the median seed-adjusted z-score is inactive: -0.0599.
Take GGACUAUGGUGUAUACCUATT against PRDX4: the median seed-adjusted z-score was inactive: -0.188.
The result for GAUAGUACUUGGGAACUAATT against CHD9 reads inactive: 0.218.
Consider ACAAGUUUCAAACAGAGUATT against DUSP7, for which the median seed-adjusted z-score is inactive: 0.
On to CAGUUUUAUUCUUGCUCUATT against SEMA4B, for which the median seed-adjusted z-score was inactive: 0.185.
Consider GGAUAUCUUUUAUCUACAATT against DHX35, for which the median seed-adjusted z-score is inactive: -0.066.
For the sequence GUGUCAACAUGGUUCAUAUTT against TPH2, the median seed-adjusted z-score was inactive: 0.275.
CUCUGGUCCUUAUCAGGAATT against AP4S1: the median seed-adjusted z-score was inactive: -0.498.
With CUGUCGAGGCUGCAACAAATT against RNF166, the median seed-adjusted z-score was inactive: -0.3.
On to GAGAGUCAGAUGAACUGUATT against GPR37, for which the median seed-adjusted z-score is inactive: -0.0447.
Take GCGAAUGAGUGGUAGAGGATT against ARHGAP21: the median seed-adjusted z-score is inactive: 0.229.
For GAACGGUACCUUAGUGAUATT against MXRA5, the median seed-adjusted z-score is inactive: 0.104.
Consider CGGGUUACCUGGAACUACATT against COL22A1, for which the median seed-adjusted z-score was inactive: 0.3.
For UCACUAUGCUGGAUGAACATT against SNAP23, the median seed-adjusted z-score was inactive: 0.31.
On to GGAUUCUCAGUUACACUUATT against SLC25A3, for which the median seed-adjusted z-score was inactive: -0.495.
In the case of GAUCCAGUAUUGUUAGCAATT against RAPGEF2 it was inactive: -0.0715; in that of GGAAAUGGAUGAUAACCAATT against GPR151, inactive: -0.263; in that of CUGUGAAUGUUGAUGUCCATT against SLC3A1, inactive: -0.33.
In the case of GUAGAUAUGUGGAAACGGATT against FAM48A it was inactive: -0.506.
For GAUCUUGGUUUGAUUCGUATT against RASGRP3, the median seed-adjusted z-score was inactive: 0.0202.
For ACUUCUACACGUUUCCAAATT against THAP11, the median seed-adjusted z-score was active: -1.36.
In the case of CUAUGUAUGUGACCCGUGATT against CDKL5, the median seed-adjusted z-score was inactive: -0.256.
In the case of GCGUCCAAUCAGAACCAAATT against SNAI3, the median seed-adjusted z-score was inactive: -0.195.
For the sequence GCCCUUUAAAUGCCCUGAATT against ZNF629, the median seed-adjusted z-score was inactive: 0.0602.
Consider CCUCCAUUCUGUGCGUUCUTT against GPR148, for which the median seed-adjusted z-score is inactive: 0.
Consider CCACAAUUUUAAUCAGGCATT against PCBD2, for which the median seed-adjusted z-score is inactive: -0.0549.
In the case of GCCUUUUUAGAUUGAGAGATT against MAFF it was inactive: 0.42; in that of CGACUUCUCAGAAGGCAGATT against GATA4, inactive: -0.24; in that of CGAUUUUAAUCUUCGUGUUTT against IPP, inactive: 0.298.
As for GUACUUCCAUAGACAGGAATT against CECR1, the median seed-adjusted z-score is inactive: 0.00187.
The result for CAGAGACCCUUGAUAAACUTT against PIK3AP1 reads inactive: 0.0678.
As to CCAAUUUCCUUAUACGUUUTT against ATP10A, the median seed-adjusted z-score is inactive: -0.435.
Turning to GGCAUUACAUCAUCCCACATT against GIT1, the median seed-adjusted z-score was inactive: -0.307.
As to GCAUAAUACCAUCACUACUTT against CREB5, the median seed-adjusted z-score was inactive: -0.0542.
Regarding GGGACCAAAAUCAAUGAAATT against PCBP3, the median seed-adjusted z-score was inactive: -0.0373.
For the sequence GAGACUCUGUGGACGUAAATT against ZNF101, the median seed-adjusted z-score is inactive: 0.336.
For the sequence CCAUGUUCAUCAAAACUCUTT against ARHGAP1, the median seed-adjusted z-score was active: -1.14.
On to CUAUGAGGAAUGUCGCAGATT against XPO1, for which the median seed-adjusted z-score is active: 1.12.
As for GGACUUAUUGGGUUAUUAUTT against FOXE3, the median seed-adjusted z-score is inactive: -0.451.
Turning to GACCUGGGCUUAGACAGUUTT against NDUFAB1, the median seed-adjusted z-score was inactive: -0.282.
The result for CCAUUGCGUUUUUCACCAUTT against PCDH20 reads inactive: 0.0594; that for CUACUAUACCUGGACCUCATT against FLII, inactive: -0.353; that for CGGUGACUGCGGUGAAGAATT against ILVBL, inactive: 0.343.
On to GCUGAACAUGAAAAGCUAUTT against ZMYND17, for which the median seed-adjusted z-score was inactive: -0.00314.
Regarding GAAUGAUGUAUUUAGAUCATT against FCRL4, the median seed-adjusted z-score was inactive: -0.39.
The result for GAAGCGCAGGCAAAUCAAUTT against FXYD2 reads inactive: -0.383.
On to GCAGAGGUUUGAAUCCUAUTT against EIF3L, for which the median seed-adjusted z-score was inactive: 0.656.
As to CCUUUGUGCUGGGAUAAAATT against ITLN2, the median seed-adjusted z-score is inactive: 0.00733.
In the case of CGGCAGCUUGGGAAAAAGATT against GPRC5B it was inactive: 0; in that of CAUCAAGUUUGACAAGAUUTT against C1QTNF2, inactive: 0.0697; in that of UGAUAGCUUUGAUUCUGCATT against GNG2, inactive: 0.369.
Regarding CGUAUGCAUUUCACAAUAATT against SERPINB10, the median seed-adjusted z-score is inactive: 0.00387.
In the case of GCUGUGCUCUUGAAGAUCATT against BAG2 it was inactive: -0.87.
